Assay results as given in patent publication US20070031417A1 (UNIVERSITY OF MASSACHUSETTS, published 2007).
No constants are given. Whether binding was seen depends on the method and setting. For some assays here: Binding seen in cells or lysates may run through a third protein. Some entries that bind do so weakly or less than the wild type. One block for each binder: values may come before it.

The chains behind the UniProt entries cited, without tags or fusion partners. Where a name states a change or a piece, a line headed by the entry shows the natural chain unless it says otherwise.
UniProt P34529: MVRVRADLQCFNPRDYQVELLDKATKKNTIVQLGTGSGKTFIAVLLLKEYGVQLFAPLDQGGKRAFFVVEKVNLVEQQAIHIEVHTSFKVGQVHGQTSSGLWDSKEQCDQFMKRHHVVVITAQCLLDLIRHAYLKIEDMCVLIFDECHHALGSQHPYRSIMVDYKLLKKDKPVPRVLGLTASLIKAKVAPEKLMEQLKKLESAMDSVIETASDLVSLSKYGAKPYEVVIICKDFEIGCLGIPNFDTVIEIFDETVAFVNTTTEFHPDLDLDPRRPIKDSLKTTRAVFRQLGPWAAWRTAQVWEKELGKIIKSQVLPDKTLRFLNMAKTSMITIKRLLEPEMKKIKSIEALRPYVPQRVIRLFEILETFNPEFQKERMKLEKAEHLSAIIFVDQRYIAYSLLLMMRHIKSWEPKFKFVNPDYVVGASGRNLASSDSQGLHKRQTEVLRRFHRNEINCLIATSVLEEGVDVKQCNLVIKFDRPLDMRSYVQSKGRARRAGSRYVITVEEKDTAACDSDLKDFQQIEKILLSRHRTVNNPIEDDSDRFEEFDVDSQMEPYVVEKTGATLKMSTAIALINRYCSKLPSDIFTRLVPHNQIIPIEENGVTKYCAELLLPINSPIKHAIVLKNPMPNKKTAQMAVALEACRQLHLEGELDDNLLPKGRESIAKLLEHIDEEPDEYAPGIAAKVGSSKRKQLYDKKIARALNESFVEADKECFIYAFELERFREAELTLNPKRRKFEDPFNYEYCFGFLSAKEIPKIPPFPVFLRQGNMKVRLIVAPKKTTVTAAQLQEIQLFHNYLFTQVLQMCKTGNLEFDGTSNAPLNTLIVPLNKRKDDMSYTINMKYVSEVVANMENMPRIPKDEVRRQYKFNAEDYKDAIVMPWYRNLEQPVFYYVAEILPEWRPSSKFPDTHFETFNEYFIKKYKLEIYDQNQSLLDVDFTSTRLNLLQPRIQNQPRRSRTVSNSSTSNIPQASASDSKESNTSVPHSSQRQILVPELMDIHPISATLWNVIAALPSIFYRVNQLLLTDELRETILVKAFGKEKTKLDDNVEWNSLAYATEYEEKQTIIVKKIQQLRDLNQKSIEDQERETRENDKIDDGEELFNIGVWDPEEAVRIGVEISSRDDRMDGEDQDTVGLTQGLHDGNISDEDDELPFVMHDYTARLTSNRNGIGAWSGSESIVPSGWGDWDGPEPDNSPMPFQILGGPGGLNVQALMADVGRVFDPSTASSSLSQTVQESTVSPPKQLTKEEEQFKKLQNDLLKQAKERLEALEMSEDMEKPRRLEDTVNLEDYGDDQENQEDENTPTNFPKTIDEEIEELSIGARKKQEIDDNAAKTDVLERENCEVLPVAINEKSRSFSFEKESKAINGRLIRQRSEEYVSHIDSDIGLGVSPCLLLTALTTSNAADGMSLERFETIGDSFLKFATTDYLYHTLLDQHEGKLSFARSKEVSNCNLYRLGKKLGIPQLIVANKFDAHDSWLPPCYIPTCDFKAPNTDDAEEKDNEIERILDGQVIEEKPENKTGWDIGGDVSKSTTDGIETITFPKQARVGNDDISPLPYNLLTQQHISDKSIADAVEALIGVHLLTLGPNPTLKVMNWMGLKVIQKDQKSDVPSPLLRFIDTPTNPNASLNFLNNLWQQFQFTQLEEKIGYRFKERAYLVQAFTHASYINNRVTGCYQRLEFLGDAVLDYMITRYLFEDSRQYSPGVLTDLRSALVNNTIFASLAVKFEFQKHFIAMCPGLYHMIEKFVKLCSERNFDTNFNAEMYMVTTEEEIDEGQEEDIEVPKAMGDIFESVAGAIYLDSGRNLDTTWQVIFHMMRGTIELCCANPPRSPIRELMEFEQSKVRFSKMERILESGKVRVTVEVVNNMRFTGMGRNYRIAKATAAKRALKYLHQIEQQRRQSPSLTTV

Columns and labels:
[1] = molecular target: Dicer (DCR-1), C. elegans (Caenorhabditis elegans) (UniProt P34529); test: DCR-1 purification, MudPIT
[2] = molecular target: DCR-1::8xHA fusion protein (Caenorhabditis elegans) (UniProt P34529); test: embryonic DCR-1::8xHA purification on HA matrixes, MudPIT (E)
[3] = molecular target: Dicer (DCR-1), C. elegans (Caenorhabditis elegans) (UniProt P34529); test: gravid adult DCR-1 purification on anti-DCR-1 matrixes, MudPIT (A)
[4] = molecular target: Dicer (DCR-1), C. elegans (Caenorhabditis elegans) (UniProt P34529); test: co-IP with DCR-1, antibody matrix, purification 1, MudPIT (P = present)
[5] = molecular target: Dicer (DCR-1), C. elegans (Caenorhabditis elegans) (UniProt P34529); test: co-IP with DCR-1, antibody matrix, purification 2, MudPIT (P = present)
[6] = molecular target: Dicer (DCR-1), C. elegans (Caenorhabditis elegans) (UniProt P34529); test: co-IP with DCR-1, antibody matrix, purification 3, MudPIT (P = present)
[7] = molecular target: Dicer (DCR-1), C. elegans (Caenorhabditis elegans) (UniProt P34529); test: co-IP with DCR-1, antibody matrix, purification 4, MudPIT (P = present)
[8] = molecular target: DCR-1::8xHA fusion protein (Caenorhabditis elegans) (UniProt P34529); test: embryonic DCR-1::8xHA purification on HA matrixes, MudPIT (E); western detection (W)
[9] = molecular target: Dicer (DCR-1), C. elegans (Caenorhabditis elegans) (UniProt P34529); test: co-IP with DCR-1, second antibody matrix (1001), minus controls, MudPIT (P = present)
[10] = molecular target: Dicer (DCR-1), C. elegans (Caenorhabditis elegans) (UniProt P34529); test: gravid adult DCR-1 purification on anti-DCR-1 matrixes, MudPIT (A); western detection (W)
[11] = molecular target: Dicer (DCR-1), C. elegans (Caenorhabditis elegans) (UniProt P34529); test: adult DCR-1 purification, MudPIT
[12] = molecular target: DCR-1::8xHA fusion protein (Caenorhabditis elegans) (UniProt P34529); test: embryonic DCR-1::8xHA purification, MudPIT

binding [1]: binds | binding [2]: binds | binding [3]: binds
B1: ERI-5 (Y38F2AR.1) (protein)
chain: MAMAPLRPRVFARCLILKNLELIEAARIFFIDSAVTANVSWKCLFQIDENLKFHPWQAMHCTLGRLVHLSDSWTDTQCTEFRNIVSKFAKFQITANQCDVDFRSDRPSLLVNLYGLPNGTEIDKKVAIEEICAVSMQNVMVSQFPTNFMVNPKLEELDKEQDHLDVILLEEFRRDLPADWAHEPPADYREDDADWDILQCHVAEWNDTALEQFRRADGSFWAMLEPSCTVSPWEMHVTPILAPEKMSDNEHWIFEQLVKNSENQQKIDDFYSNLKNQRPLEMEEIKFALQTGRTYVMATIKNRQKSSAQWLRCEIIDFLPNANVALRYVDLGTRGILKLKNLHRMHIEHTKIAPACIEIGRFLDDDLSMADSEMEWNTHFWREIVPYDVPIVVGPDMEFLETGKLQFSQIRVAGDEDDENLLDKIPSPSPFFTERSDDLRTQKEDDDDGNVSDDKDSG

binding [1]: binds | binding [2]: binds | binding [3]: binds
B2: DRH-3 (D2005.5) (enzyme)
chain: MQPTAIRLEDYDKSKLRLPFESPYFPAYFRLLKWKFLDVCVESTRNNDIGYFKLFESLFPPGKLEEIARMIIDEPTPVSHDPDMIKIRNADLDVKIRKQAETYVTLRHAHQQKVQRRRFSECFLNTVLFDEKGLRIADEVMFNYDKELYGYSHWEDLPDGWLTAETFKNKFYDEEEVTNNPFGYQKLDRVAGAARGMIIMKHLKSNPRCVSETTILAFEVFNKGNHQLSTDLVEDLLTEGPAFELKIENGEEKKYAVKKWSLHKTLTMFLAIIGFKSNDKKEKNEHEEWYYGFIDAMKNDPANRAALYFLDKNWPEELEEREKERDRIRLTLLKSQRTNEEAVGEDVCTTIRPQPKDSGYNPDAVVTELVLRTYQEELVQPALEGKNCVIVAPTGSGKTEVAIYAALKHIEERTSQGKPSRVVLLVPKIPLVGQQKDRFLKYCNGMYEVNGFHGSESSVSGTGRRDEVIATHVSVMTPQILINMLQSVRQNERLYVSDFSMMIFDEVHKAAKNHPYVLINQMVQEWKYEKPQIIGLTASLSVKVDGQKDENQMLNDIYNMLALINAPHLSTITRQSSIDELNEHVGKPDDSVELCLPAKENILRDYIERYLNHAHGKFLEELASMSKSTGRNNTIPPNMINTFKKNQPKNYEYYDSLLQGIIQELNKLNVPEKWNSQTWAKYMKVYLEARGIVDLMPAMVAFKYMEKAIGKLNESHSETVEYSTFIKDHDTLKQTIQSVEPEIVLRLKNTLTNQFHVAPESRVIIFVTQRSTAQRVSDFLNESKVLDQFGNYGEQMVGYVLGTNKQGAVQQTSQEQQLTLDKFNNGRLKVIVATSVVEEGLDVTACNLIIKYNCSSGSAIQLVQQRGRARAKNSRSVLLSVKSSINETETNALISEKYMRLCVKKITENGEKQLAAEVKRVAELNAAERKRNLEEQLNLRLRHENKIYKLMCSNCSKEFCKSIYIKKVFSNYMVFDPSVWRFLHVESKRKVSKYLSEDNQPLSDIKCFHCKLDVGRAYKIRGTYLPQLSVKALTFVQESDYSSMTKAKWSDVEQDLFYISEAIEDDFRIMLNALSDTEENIEKKIVLDLDSRQHNKQLEMKRFHIQQEPPTKGVAPEAQ

binding [2]: binds
B3: TAF 6.1 (protein)
chain: MSKTVTIRRPSPTKTSEEPAAHQTPIFTQTAAEMLGITSLNTEAAELLEFLSREKLKEIVRLSAKWTQKSARRRMAVADVEHAIRSTRQCGGLNISSVDTLNLGIQQLQPIQGTSTGIYSFLKSSADVDVDKEDTETFIKIPRDLRVISYPLVNEGQPVQSEYTVNVDEDDGNFFEKIVPEVMTMIPEKNTPSSSTTSSLQMFRDAVKTAKIDQKVGLKPSTIEILTVEQQIFMKDIITVCMGQDDKKRHEALYTLETDAGLQVFLPHLTERICKSISANISQRCLSLIIYAGRVLRSLSHNKACDMTVTLHHVLPALLSCCVGRNMCLRPETDNHWALRDFSAKTLVGLVRDQVDKHDAGRTARRLFDFSHRIFRDTGSSFSMIYGTVHILQEFVAGPKKAAWLLTELGETNARCKSHIESGSRIGASQLSIQEAQKLNQQILKCENSIRNRYNLQQQAPGVPINRRFH

binding [1]: binds | binding [2]: binds | binding [3]: binds
B4: ERI-3 (W09B6.3) (protein)
chain: MQPVLVNSRPLRVKSHESESKLNLIEQEDQFEGANYSSSSGVIICYSNGTGEVITQEAFDDSGIHFIFSKATCIQYPSNFDPIGVGSVVQIFWSRSFERVVRGNHIIVQIEKMEVYKCCAMLREQVFVTFNSPSTAGVAIGVTERNITVAFHPNCSPVIRYETLKAHSIGRTEFEIKDRHRENTNRMVDVILAAVPFRVEIHGNVDKIPFFVIEKCRNSPGRSGAAVITKIMKNHFMEANFLQNSESIYFDSTSCHSNILEKVSIGSLINVLADPTFATSSYKWYGYDVTLCNNYLAHASTQRSFVLENNEILQNCKKLEKSPEEAETTTKNDLRFVPPQPEKGEVKKKKMTNCLKFNSKSAQFKLRHLILDRCFSELPEREAKSIINSYFIDRLAEGIKIEKIDKNWRTFGEILPKTPKKYSESLKKSIQNVLEPFGLNKPEKAAETPKIVEYFPKNPKKRVEIVEKPTVDEIRELFGALMDAEGFALNQRVKPHFVLPDTRWKPTERRYIGIYDDVQWTFMSTFCPKIEENSENRPLAGGWWYRRTVPRDHPVEIVQKMETRRNIIKDCTESPFIE

binding [1]: binds | binding [4]: binds | binding [5]: binds | binding [6]: binds | binding [7]: binds | binding [8]: binds | binding [9]: binds | binding [10]: binds
B5: DRH-2 (enzyme)
chain: MIVNLCNEHRDPLDDEYPPEQFFLSTFTIIFFDECHNTVKNSPYSNVMREYHYLKNMGNMPEGHSFPQIIGLTASLGTGDKKNCMQVRSYIAGLCANMDVKELSIVKDNLEELLDHNPFVTDQVSFCERSNDGPIEMFTKRLKQMMQEVEDLIRTTLKNEPTVKYEIPPTDKEHNRYENWISNQRNCVSLAGSRNKTLIIEVLDVLKDCFYALSYNINFNPEVALKKYLEKELGPERIRNFTDNMNLIWDNCHRELVGIGSAENPMIARTVQFILDQNEQTSDFRAIIFVRTKKEADFLNYVLNDRLHELGIKSDWMSGQKKSTASSADISASKQKQMEKLKMFADGENQILVSTSVAEEGLDIPECSLVIKYNYATNETAHVQRRGRARARNSKCVLITNSIALHVQESNNLAKENLMTETISLIQNSPGEFRQCVDEESNKVWPRIQREDTDKAQRIKEQINRNIVYKIVCMKCDTVLCTNKDIRSKNTQYIVCNPGFWSLVRRIPLPLEQRASNKFNSTGSIECLGERCGSKLGQLIDVNTVNLPCLKVKSILLLIESTNERILVKQWKNILDEHFTPTTLKQRDVQTMKDADYGRAPIEFEHHTANGEVINVIRQA
notes: Endogenous protein from C. elegans extract; also called C01B10.1; Dicer-Related Helicase

binding [1]: binds | binding [11]: binds | binding [12]: binds | binding [2]: binds | binding [3]: binds
B6: PIR-1 (T23G7.5) (enzyme)
chain: MPEPRCTAIVNFLNLSHSILISIFSVSVMSNYHHNHNYQHRPRGYERLPGKRLPDRWNIYDNVGRDIDGTRFVPFKTPLDSSFFDGKNMPVELQFGVKTLISLAQQANKQIGLVIDLTNTDRYYKKTEWADHGVKYLKLNCPGHEVNEREDLVQDFINAVKEFVNDKENDGKLIGVHCTHGLNRTGYLICRYMIDVDNYSASDAISMFEYYRGHPMEREHYKKSLYEAERKKKYGKSSGKSSGNSADSTISSEQLHRNNSQ
